Assay results: the supplement of paper PMC12889115
The other results are listed elsewhere or left out. These are raw signals, not scaled to a control.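 Primary screen: polymyxin B was added at a level permeabilizing Salmonella outer membranes while sparing inner membranes. DMSO wells, both with and without polymyxin B, established maximum growth. Plate-to-plate variation meant each plate was ranked on its own, and the lowest-OD600 compounds were selected as hits.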

Test system: Salmonella enterica serovar Typhimurium SL1344
Assay: bacterial growth OD600 after 18 h with compound and polymyxin B; higher = more bacterial growth (less inhibition)
Details: 50 µM, Mueller-Hinton broth

O=C(c1ccc(N2CCCC(O)C2)nc1)N1CCC(CCn2cccn2)CC1 (centres undefined)
bacterial growth OD600 (polymyxin B 0.75 µg/mL): 0.791

C=CCNC(=O)Cc1c2c(n(Cc3ccccc3F)c1C)CCCC2=O
bacterial growth OD600 (polymyxin B 1 µg/mL): 0.73

CCOC(=O)C1(CCc2ccccc2)CCN(C(=O)c2cc(C)nc(C)n2)CC1
bacterial growth OD600 (polymyxin B 1 µg/mL): 0.906

O=C(NCCc1ccncc1)c1ccc(OC2CCN(C(=O)C3CC3)CC2)cc1
bacterial growth OD600 (polymyxin B 1 µg/mL): 1.05

c1ccc(Oc2ncccc2CNCc2ccccn2)cc1
bacterial growth OD600 (polymyxin B 1 µg/mL): 0.836

CCN1CCN(C(=O)c2ccc(N3CCC(N4CCC(c5ccccc5)CC4)CC3)cc2)CC1
bacterial growth OD600 (polymyxin B 0.75 µg/mL): 0.655

CC(C)c1noc(-c2ccc(NCC3CCCOC3)nc2)n1 (centres undefined)
bacterial growth OD600 (polymyxin B 0.75 µg/mL): 0.626

C=CCCC(=O)NC1CC(C)(C)Cc2c1cnn2-c1cccc(F)c1 (centres undefined)
bacterial growth OD600 (polymyxin B 1 µg/mL): 0.864

CCCCn1c(CN2CCCN(C=O)CC2)cnc1S(=O)(=O)CCCC(C)C
bacterial growth OD600 (polymyxin B 0.75 µg/mL): 0.607
